Test results from patent EP2662386A1.
Results are given in words; binding and its absence hold for the method and conditions named. For some of these results: Binding seen in cells or lysates may run through a third protein. Some entries that bind do so weakly or less than the wild type. For some of these results: Sequences can lack the tags named with a protein.

Columns and labels:
[1] = biological target: T1, FGF7 expressed in HEK293T cells (human) (UniProt P21781); assay: co-immunoprecipitation with an FGF7-specific antibody from HEK293T cells
T1 sequence: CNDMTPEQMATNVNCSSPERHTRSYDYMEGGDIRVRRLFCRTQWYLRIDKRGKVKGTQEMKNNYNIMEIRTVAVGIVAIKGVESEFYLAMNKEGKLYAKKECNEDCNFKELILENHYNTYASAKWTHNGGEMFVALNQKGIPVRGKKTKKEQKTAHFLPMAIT

[2] = biological target: T2, GST-FGF7 (bacterially expressed and purified) (human) (UniProt P21781); assay: in vitro interaction assay (legend of Figure 2)
T2 sequence: T1 sequence

[3] = biological target: T1, FGF7 expressed in HEK293T cells (human); assay: co-immunoprecipitation (legend of Figure 3)
[4] = biological target: T2, GST-FGF7 (bacterially expressed and purified) (human); assay: pull-down of PLAC1 from HEK293T lysate on immobilized GST-FGF7, immunoblot

Measured: binding

B1: human PLAC1 (protein)
chain: QSPMTVLCSIDWFMVTVHPFMLNNDVCVHFHELHLGLGCPPNHVQPHAYQFTYRVTECGIRAKAVSQDMVIYSTEIHYSSKGTPSKFVIPVSCAAPQKSPWLTKPCSMRVASKSRATAQKDEKCYEVFSLSQSSQRPNCDCPPCVFSEEEHTQVPCHQAGAQEAQPLQPSHFLDISEDWSLHTDDMIGSM
binds: [1] | [2] | [3] | [4]
